The text below walks through data of paper PMC6240266.

Protein sequences, listed by entry. Tags and fused reporters are not part of them.
UniProt Q12888: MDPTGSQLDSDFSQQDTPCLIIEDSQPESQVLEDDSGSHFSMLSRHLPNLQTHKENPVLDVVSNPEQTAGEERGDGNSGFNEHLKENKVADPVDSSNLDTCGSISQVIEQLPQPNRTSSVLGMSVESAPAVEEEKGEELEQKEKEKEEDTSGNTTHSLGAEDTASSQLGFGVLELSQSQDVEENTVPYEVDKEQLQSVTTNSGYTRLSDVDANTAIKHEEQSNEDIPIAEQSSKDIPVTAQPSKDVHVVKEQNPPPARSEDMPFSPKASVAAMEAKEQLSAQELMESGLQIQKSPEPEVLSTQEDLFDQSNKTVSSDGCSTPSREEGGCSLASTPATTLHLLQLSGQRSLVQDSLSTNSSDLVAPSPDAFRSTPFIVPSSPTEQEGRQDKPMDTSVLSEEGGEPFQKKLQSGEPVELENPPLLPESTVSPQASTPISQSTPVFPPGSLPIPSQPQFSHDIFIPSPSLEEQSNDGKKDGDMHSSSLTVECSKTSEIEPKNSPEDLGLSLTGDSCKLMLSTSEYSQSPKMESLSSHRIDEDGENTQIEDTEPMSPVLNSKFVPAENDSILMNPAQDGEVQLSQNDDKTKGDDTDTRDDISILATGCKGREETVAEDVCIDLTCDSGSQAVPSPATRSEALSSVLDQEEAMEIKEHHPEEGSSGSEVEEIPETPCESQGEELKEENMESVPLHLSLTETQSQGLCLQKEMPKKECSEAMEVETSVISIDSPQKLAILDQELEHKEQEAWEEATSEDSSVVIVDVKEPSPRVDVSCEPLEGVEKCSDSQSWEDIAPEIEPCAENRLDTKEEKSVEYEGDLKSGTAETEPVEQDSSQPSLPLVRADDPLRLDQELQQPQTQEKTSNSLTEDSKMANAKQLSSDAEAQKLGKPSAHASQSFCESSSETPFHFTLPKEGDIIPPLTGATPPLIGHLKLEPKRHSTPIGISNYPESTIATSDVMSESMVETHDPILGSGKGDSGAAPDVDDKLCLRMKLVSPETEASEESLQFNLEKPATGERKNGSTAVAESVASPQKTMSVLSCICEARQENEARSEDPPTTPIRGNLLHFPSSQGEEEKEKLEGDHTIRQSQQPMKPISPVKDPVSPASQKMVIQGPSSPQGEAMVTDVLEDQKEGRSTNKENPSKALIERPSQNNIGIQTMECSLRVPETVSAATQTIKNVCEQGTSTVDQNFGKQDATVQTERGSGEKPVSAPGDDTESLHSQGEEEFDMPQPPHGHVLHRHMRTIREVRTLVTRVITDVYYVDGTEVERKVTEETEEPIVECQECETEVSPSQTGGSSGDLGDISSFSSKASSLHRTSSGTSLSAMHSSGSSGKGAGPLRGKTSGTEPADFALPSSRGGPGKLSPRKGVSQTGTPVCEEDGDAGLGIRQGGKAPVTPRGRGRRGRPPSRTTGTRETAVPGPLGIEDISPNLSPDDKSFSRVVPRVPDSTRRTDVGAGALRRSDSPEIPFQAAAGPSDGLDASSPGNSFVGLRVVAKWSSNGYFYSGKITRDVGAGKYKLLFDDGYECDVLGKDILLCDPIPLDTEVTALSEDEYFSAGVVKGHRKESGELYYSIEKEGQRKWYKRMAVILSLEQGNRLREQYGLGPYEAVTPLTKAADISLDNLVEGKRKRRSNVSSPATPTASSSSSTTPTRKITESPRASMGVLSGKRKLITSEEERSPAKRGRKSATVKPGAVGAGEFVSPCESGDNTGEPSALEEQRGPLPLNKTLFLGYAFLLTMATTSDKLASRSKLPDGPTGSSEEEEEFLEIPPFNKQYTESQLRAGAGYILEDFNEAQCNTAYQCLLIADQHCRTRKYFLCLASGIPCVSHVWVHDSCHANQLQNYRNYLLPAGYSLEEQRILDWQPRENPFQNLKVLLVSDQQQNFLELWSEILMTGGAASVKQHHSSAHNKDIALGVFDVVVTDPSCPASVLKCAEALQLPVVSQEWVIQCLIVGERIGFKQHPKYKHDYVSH
UniProt P03129: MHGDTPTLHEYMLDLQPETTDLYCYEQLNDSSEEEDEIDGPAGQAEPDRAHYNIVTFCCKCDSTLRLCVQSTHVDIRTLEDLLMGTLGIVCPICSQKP
UniProt P03126: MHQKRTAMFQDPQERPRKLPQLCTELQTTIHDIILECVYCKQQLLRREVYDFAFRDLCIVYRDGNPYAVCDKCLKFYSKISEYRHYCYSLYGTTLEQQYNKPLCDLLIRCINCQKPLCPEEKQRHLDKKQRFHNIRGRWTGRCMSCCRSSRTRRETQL

No constants are given. Whether binding was seen depends on the method and setting. Binding seen in cells or lysates may run through a third protein. Some binding calls cover weakened binding; strength is not graded here.

Assay [1] deals with p53-binding protein 1 (human (endogenous in CaSki and NHEKs)) (UniProt Q12888). The assay can be described thus: proximity ligation; in situ PLA (Duolink, mouse/rabbit probes) on fixed, paraffin-embedded CaSki cells; primary antibodies 53BP1/E6 and 53BP1/E7; red spots; CaSki used as positive control.
Assay [2] shares this target. Kind of assay: proximity ligation; in situ PLA (Duolink, mouse/rabbit probes) on fixed, paraffin-embedded E6E7HPV16 NHEKs (2D); primary antibodies 53BP1/E6 and 53BP1/E7; red spots.
For assay [3] the target is unchanged. The assay can be described thus: proximity ligation; in situ PLA (Duolink, mouse/rabbit probes) on sections of the HPV16 positive 3D reconstructed epithelium after EDTA unmasking; primary antibodies 53BP1/E6 and 53BP1/E7 overnight at 4 °C; red spots.

For “Human papillomavirus type 16 E7 oncoprotein (in CaSki cells) (from UniProt P03129 1-98)”, the binding result in assay [1] is listed as “binds”.

As to “Human papillomavirus type 16 E6 oncoprotein (in CaSki cells) (from UniProt P03126 1-158)”, the binding result in assay [1] is reported as “binds”. As to “Human papillomavirus type 16 E7 oncoprotein (in E6E7 HPV16 transduced keratinocytes) (from UniProt P03129 1-98)”, the binding result in assay [2] and in assay [3] was “binds” in each case. “Human papillomavirus type 16 E6 oncoprotein (in E6E7 HPV16 transduced keratinocytes) (from UniProt P03126 1-158)”: the binding result in assay [2] and in assay [3] was “binds” throughout.
